This is one part of the list.
What was measured:
Test in all cases: log2 fold change, soluble protein after heating vs DMSO (PISA); higher = thermal stabilisation; K562 lysate, 10 uM; active = over 0.2 and 3.5 SD of the protein, either way, in both replicates (recomputed)
[1] = compound: C1=CC=C(C=C1)[C@H](COC2=CC3=C(C=C2)NC(=O)N3)NC(=O)C4=CC=CN(C4=O)CC5=CC(=C(C=C5)F)F
Method in brief: (§1)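 K562 pellets were dounce-homogenised in PBS pH 7.4 with 1 mM MgCl2, and the crude extract at 1 mg/mL protein was treated with 10 μM compound for 30 min. Aliquots were heated for 3 min across 48°C-58°C, pooled, and brought to 0.5% NP-40 at 4°C; soluble protein was the supernatant after 21,000xg for 90 min. Soluble protein was quantified by TMTpro 16plex LC-MS/MS with channel sums equalised, and reported as log2 fold change in thermal stability against DMSO controls, with values from duplicates.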

Amino acid sequences for entries named in this document (tags omitted). A change or cut given only in a name is not applied to a line headed by its entry.
UniProt O60294: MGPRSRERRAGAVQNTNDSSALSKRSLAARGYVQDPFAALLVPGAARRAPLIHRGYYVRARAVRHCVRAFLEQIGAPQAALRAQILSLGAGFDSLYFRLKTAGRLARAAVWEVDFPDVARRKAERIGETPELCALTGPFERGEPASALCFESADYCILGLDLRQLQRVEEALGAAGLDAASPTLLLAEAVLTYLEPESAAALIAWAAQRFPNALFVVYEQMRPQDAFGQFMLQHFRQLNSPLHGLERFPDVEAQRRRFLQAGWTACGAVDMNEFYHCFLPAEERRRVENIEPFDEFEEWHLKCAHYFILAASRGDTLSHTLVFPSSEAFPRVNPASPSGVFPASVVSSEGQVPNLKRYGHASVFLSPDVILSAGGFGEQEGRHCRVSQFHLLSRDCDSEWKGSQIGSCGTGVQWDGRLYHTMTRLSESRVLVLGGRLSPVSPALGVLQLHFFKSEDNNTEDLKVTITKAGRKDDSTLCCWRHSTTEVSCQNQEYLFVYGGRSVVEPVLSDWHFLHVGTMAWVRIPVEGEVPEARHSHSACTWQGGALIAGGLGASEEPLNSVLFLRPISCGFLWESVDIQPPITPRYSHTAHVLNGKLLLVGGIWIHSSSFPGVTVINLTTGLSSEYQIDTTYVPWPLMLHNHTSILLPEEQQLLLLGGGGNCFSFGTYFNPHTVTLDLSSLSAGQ
UniProt Q8N9N7: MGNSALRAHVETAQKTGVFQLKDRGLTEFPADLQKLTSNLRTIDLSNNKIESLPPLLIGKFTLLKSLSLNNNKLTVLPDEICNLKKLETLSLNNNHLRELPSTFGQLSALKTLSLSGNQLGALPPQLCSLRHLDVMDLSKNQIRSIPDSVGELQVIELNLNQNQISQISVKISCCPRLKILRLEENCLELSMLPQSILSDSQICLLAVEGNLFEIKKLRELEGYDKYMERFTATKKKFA
UniProt Q96PV6, whole entry, looked up: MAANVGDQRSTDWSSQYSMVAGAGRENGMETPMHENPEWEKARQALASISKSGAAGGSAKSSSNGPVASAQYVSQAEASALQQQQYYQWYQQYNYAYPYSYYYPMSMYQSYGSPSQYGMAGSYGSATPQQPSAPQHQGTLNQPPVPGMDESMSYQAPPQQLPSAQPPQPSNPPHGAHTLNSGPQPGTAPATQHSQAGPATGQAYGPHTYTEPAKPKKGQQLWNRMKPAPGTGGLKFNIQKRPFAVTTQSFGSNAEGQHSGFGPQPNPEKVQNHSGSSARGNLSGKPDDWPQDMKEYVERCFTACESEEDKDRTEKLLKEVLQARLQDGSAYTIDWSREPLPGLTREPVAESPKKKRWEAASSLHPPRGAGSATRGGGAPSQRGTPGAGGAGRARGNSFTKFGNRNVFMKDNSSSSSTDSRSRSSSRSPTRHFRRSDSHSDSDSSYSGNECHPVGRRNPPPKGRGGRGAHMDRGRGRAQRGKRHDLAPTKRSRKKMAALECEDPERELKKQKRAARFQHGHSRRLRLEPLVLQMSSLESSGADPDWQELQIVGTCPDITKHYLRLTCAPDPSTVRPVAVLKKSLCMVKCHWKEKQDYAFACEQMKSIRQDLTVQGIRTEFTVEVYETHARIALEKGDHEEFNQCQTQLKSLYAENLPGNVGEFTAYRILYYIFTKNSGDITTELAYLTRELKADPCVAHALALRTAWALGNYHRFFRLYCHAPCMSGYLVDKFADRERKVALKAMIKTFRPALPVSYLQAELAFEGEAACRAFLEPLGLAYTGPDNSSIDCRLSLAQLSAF
UniProt P25791: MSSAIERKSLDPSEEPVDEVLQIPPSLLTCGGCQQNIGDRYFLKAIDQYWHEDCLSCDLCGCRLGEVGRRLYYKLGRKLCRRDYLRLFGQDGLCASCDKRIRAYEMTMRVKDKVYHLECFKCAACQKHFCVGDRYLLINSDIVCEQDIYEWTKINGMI
UniProt Q5SW96: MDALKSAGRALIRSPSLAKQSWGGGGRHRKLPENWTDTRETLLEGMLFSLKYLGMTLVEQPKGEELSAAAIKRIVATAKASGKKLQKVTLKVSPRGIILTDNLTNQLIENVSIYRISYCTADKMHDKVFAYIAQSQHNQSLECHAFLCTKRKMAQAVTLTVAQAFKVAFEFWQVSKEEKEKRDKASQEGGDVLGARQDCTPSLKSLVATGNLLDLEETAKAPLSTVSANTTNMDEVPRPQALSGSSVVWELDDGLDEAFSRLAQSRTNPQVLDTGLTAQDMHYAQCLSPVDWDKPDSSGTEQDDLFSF
UniProt P01130: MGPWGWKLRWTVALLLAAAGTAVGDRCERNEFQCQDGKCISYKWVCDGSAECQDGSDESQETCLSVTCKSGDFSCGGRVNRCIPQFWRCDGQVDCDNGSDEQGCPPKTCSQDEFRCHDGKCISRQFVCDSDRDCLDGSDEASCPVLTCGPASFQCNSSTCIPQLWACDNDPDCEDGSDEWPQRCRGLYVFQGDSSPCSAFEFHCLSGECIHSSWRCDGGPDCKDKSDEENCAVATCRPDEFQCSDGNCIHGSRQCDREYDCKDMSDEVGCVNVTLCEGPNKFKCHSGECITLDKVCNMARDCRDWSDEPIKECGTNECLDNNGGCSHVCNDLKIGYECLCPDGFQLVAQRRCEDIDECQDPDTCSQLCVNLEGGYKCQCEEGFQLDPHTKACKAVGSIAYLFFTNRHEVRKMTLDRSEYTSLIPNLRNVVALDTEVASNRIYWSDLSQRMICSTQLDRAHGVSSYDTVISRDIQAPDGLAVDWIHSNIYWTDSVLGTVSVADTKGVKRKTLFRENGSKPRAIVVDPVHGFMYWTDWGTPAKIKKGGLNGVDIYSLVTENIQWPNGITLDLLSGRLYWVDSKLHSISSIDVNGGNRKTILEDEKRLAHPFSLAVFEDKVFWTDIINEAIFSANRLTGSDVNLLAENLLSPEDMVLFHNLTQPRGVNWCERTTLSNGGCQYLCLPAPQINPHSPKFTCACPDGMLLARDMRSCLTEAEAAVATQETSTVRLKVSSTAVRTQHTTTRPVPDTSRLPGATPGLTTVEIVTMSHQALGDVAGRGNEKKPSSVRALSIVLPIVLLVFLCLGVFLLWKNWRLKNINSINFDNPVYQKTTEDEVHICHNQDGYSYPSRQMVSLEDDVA
UniProt Q96BZ8: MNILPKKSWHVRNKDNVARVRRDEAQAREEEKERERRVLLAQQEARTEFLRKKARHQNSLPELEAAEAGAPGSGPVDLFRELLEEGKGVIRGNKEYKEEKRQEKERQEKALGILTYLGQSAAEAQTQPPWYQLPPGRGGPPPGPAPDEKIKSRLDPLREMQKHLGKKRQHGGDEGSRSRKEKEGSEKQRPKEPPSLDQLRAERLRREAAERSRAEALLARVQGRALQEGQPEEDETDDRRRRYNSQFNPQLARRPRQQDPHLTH

[2] = compound: CC1=C(SC2=C1C(=N[C@H](C3=NN=C(N32)C)CC(=O)N)C4=CC=C(C=C4)Cl)C
Method in brief: as §1

[3] = compound: CC1=C2C(=CC=C1)N=C(N(C2=O)C3=CC=CC=C3C)CN4C=NC5=C(N=CN=C54)N
Method in brief: as §1

[4] = compound: Cc1sc2c(c1C)C(c1ccc(Cl)cc1)=N[C@@H](CC(=O)OC(C)(C)C)c1nnc(C)n1-2
Method in brief: as §1

[5] = compound: c1ccc([C@@H]2C[C@H]2NC2CCNCC2)cc1
Method in brief: as §1

Measured: log2 fold change

LEO1 (UniProt Q8WVC0)
inactive: [1] 0.034 | [2] -0.022 | [3] 0.023 | [4] -0.023 | [5] -0.021

LCMT2 (UniProt O60294)
inactive: [1] 0.009 | [2] 0.062 | [3] 0.085 | [4] 0.046 | [5] 0.036

LRRC57 (UniProt Q8N9N7)
inactive: [1] -0.019 | [2] -0.003 | [3] 0.015 | [4] 0.019 | [5] -0.035

LENG8 (UniProt Q96PV6)
inactive: [1] 0.042 | [2] -0.021 | [3] -0.069 | [4] 0.105 | [5] -0.023

LMO2 isoform 3 (UniProt P25791)
inactive: [1] 0 | [2] -0.221 | [3] 0.087 | [4] 0.065 | [5] -0.14

LRPPRC (UniProt P42704)
inactive: [1] -0.067 | [2] 0.043 | [3] 0.049 | [4] 0.039 | [5] 0.122

LDLRAP1 (UniProt Q5SW96)
inactive: [1] -0.083 | [2] -0.087 | [3] -0.12 | [4] -0.006 | [5] 0.131

Two successive records out of the list so far, for reference:
LMO2 isoform 3 (UniProt P25791)
inactive: [1] 0 | [2] -0.221 | [3] 0.087 | [4] 0.065 | [5] -0.14

LRPPRC (UniProt P42704)
inactive: [1] -0.067 | [2] 0.043 | [3] 0.049 | [4] 0.039 | [5] 0.122

Carrying on.

LDLR (UniProt P01130)
inactive: [1] -0.054 | [2] -0.075 | [3] 0.02 | [4] -0.052 | [5] 0.037

LENG1 (UniProt Q96BZ8)
inactive: [1] 0.07 | [2] 0.006 | [3] -0.021 | [4] 0.013 | [5] -0.05

Source: the supplement of paper PMC10849652
